# This is one part of the list. Many values rest on one well or one pass, so single values are uncertain.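 Labelled rat cortical synaptosomes were engulfed by primary human fetal astrocytes. Engulfment equaled a red/green ratio, corrected for calcein live-cell signal and normalized to the plate median. Compounds were toxic when calcein dropped over 30%, and reduced phagocytosis when below 70% of the median above 5 µM.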
# Assays:
# [1] = system: Human fetal astrocytes; experiment: loss of total cells relative to no-compound high-control median (toxicity); higher = more toxic (fewer cells); conditions: 24 h
# [2] = system: Human fetal astrocytes; experiment: synaptosome phagocytosis (pHrodo/calcein intensity ratio) relative to plate median of data wells; higher = more phagocytosis; conditions: 24 h
Structure (SMILES),loss of total cells ([1]; 1.39 µM) [%],loss of total cells ([1]; 2.78 µM) [%],loss of total cells ([1]; 5.56 µM) [%],loss of total cells ([1]; 11.11 µM) [%],loss of total cells ([1]; 22.22 µM) [%],synaptosome phagocytosis ([2]; 1.39 µM) [%],synaptosome phagocytosis ([2]; 2.78 µM) [%],synaptosome phagocytosis ([2]; 5.56 µM) [%],synaptosome phagocytosis ([2]; 11.11 µM) [%],synaptosome phagocytosis ([2]; 22.22 µM) [%]
NC[C@@H]1O[C@H](O[C@H]2[C@@H](O)[C@H](O[C@@H]3[C@@H](O)[C@H](N)C[C@H](N)[C@H]3O[C@H]3O[C@H](CO)[C@@H](O)[C@H](O)[C@H]3N)O[C@@H]2CO)[C@H](N)[C@@H](O)[C@@H]1O,-32.3,32.5,5.6,46.9,19.6,62.9,125,65.5,134,119
COc1cc(O)ccc1C(C)=O,-32,-11.2,2.9,4.1,-11.1,83.6,89.2,88,100,97.5
COc1ccc2cc3[n+](cc2c1OC)CCc1cc2c(cc1-3)OCO2,16.2,14.1,6.5,0.4,31.8,103,103,114,60.8,98.2
C=CC1(C)CC(=O)C2(O)C(C)(O1)C(O)C(O)C1C(C)(C)CCC(O)C12C (stereo not given),-10.7,10.5,-11,-2,12.6,128,127,82.2,101,96.9
CCOc1ccc(NC(=O)CC(C)O)cc1 (stereo not given),11.9,25.6,5.1,10.5,20.5,115,133,89.7,139,147
OC[C@@H](O)[C@@H](O[C@@H]1O[C@H](CO)[C@H](O)[C@H](O)[C@H]1O)[C@H](O)[C@@H](O)CO,34.7,-16.7,8.1,23.9,3.4,147,108,116,83,104
CCOC(N)=O,-12.1,-46.8,-12.4,-0.3,-7.8,102,93.8,106,85.8,106
Nc1ncnc2c1ncn2[C@H]1C[C@H](O)[C@@H](CO)O1,-0.8,-1.8,-0.7,12.8,4.4,142,122,114,108,94.8
CCN(CC)CCNC(=O)c1cc(Br)c(N)cc1OC,12.6,9.7,15.9,8.8,9.1,97.3,109,99.3,109,95.3
CCCCCCCCCCCCCCCC(=O)OC/C=C(C)/C=C/C=C(C)/C=C/C1=C(C)CCCC1(C)C,-43.5,-14.3,9.9,27.2,5.9,86.9,122,137,81.7,80.1
CC[C@H](C)C(=O)O[C@H]1CCC=C2C=C[C@H](C)[C@H](CC[C@@H]3C[C@@H](O)CC(=O)O3)[C@H]21,-7.4,2.5,11,5.4,12.6,90.3,115,75.5,87.5,93.8
CC1(C)O[C@@H]2C[C@H]3[C@@H]4C[C@H](F)C5=CC(=O)CC[C@]5(C)[C@H]4[C@@H](O)C[C@]3(C)[C@]2(C(=O)CO)O1,0,5.8,0.9,1.6,-0.6,78.4,86.3,88.7,65.6,126
Cc1ccc(C(=O)c2ccc(CC(=O)O)n2C)cc1,25,-12,22.1,12.3,3.3,94,66.4,79,31.5,105
Cc1onc(-c2c(Cl)cccc2Cl)c1C(=O)N[C@@H]1C(=O)N2[C@@H]1SC(C)(C)[C@@H]2C(=O)O,14.5,-16.6,0.7,3.7,-17.3,103,142,131,101,96.5
Nc1ccc(O)c(C(=O)O)c1 [5-Amino-2-hydroxy-benzoic acid],-12,12,-27.5,11,-3.3,131,123,106,116,135
COc1cc(OC)c2c(c1)OC(c1ccccc1)CC2=O (stereo not given),-13.1,-4.7,0.7,-0.7,-6.7,79.6,120,92.9,78.1,89.7
OC(CCN1CCCCC1)(c1ccccc1)c1ccccc1,15.5,9,18.1,-1.3,25,79.9,66.4,117,86,85.2
Cn1nnnc1SCC1=C(C(=O)O)N2C(=O)[C@@H](NC(=O)[C@H](OC=O)c3ccccc3)[C@H]2SC1,23.4,-18.3,4.3,-1,7.2,142,109,77,72.2,107
COC1=C[C@@H](C)[C@@H]2C[C@H]3OC(=O)C[C@H]4C(C)=C(OC)C(=O)[C@H]([C@@]2(C)C1=O)[C@@]34C,-21.3,-5.4,-13.2,14.2,4.4,91.9,97,98.4,103,159
COc1cc(C(=O)O)cc(OC)c1O,2.5,4,-10.1,-24.7,5.3,101,107,71.3,60.9,94.7
CC1(C)NC(=O)N(c2ccc([N+](=O)[O-])c(C(F)(F)F)c2)C1=O [Nilutamide],-16.6,-7.6,7.5,-12.5,2.3,105,92.5,88.8,122,81.7

# As entered above:
# Entry of COc1cc(O)ccc1C(C)=O under synaptosome phagocytosis ([2]; 5.56 µM) [%]: 88
# Entry of NC[C@@H]1O[C@H](O[C@H]2[C@@H](O)[C@H](O[C@@H]3[C@@H](O)[C@H](N)C[C@H](N)[C@H]3O[C@H]3O[C@H](CO)[C@@H](O)[C@H](O)[C@H]3N)O[C@@H]2CO)[C@H](N)[C@@H](O)[C@@H]1O under synaptosome phagocytosis ([2]; 1.39 µM) [%]: 62.9

# Following part:

Structure (SMILES),loss of total cells ([1]; 1.39 µM) [%],loss of total cells ([1]; 2.78 µM) [%],loss of total cells ([1]; 5.56 µM) [%],loss of total cells ([1]; 11.11 µM) [%],loss of total cells ([1]; 22.22 µM) [%],synaptosome phagocytosis ([2]; 1.39 µM) [%],synaptosome phagocytosis ([2]; 2.78 µM) [%],synaptosome phagocytosis ([2]; 5.56 µM) [%],synaptosome phagocytosis ([2]; 11.11 µM) [%],synaptosome phagocytosis ([2]; 22.22 µM) [%]
O=C(O)c1ccc(S(=O)(=O)N(Cl)Cl)cc1,6.8,-9.8,-11.1,3.2,47.7,82.9,111,146,113,101
COc1cc(-c2coc3cc(OCc4ccccc4)c(OC)c(O)c3c2=O)cc(O)c1OC,8.3,14,22.1,5.8,27,106,112,118,72.8,118
Cc1c(NC(C)C)c(=O)n(-c2ccccc2)n1C,8.3,1.8,10.1,-5.4,4.5,119,139,103,127,112
COc1ccc(-c2oc3ccccc3c(=O)c2O)cc1OC,-14.8,1.1,5.1,25,17.8,79.4,93.2,106,117,97.4
CCCCCc1c2c(cc(O)c1C(=O)O)OC(=O)c1c(cc(OC)cc1C(=O)CCCC)O2,0.4,7.3,-18.3,34.2,10,107,120,71.3,94.9,99.7
O=C(O)c1cc(O)c(O)c(O)c1,17.7,-1.1,21,32.2,24.2,128,107,126,106,106
COc1ccnc(C[S+]([O-])c2nc3cc(OC(F)F)ccc3[nH]2)c1OC (stereo not given),10,-1.5,-2.1,-28.9,-6.8,96.1,95.8,85.8,125,79.4
Nc1nc(=O)c2c([nH]1)NCC(CNc1ccc(C(=O)N[C@@H](CCC(=O)O)C(=O)O)cc1)N2C=O (stereo not given in full),2.1,-9.8,-6.3,3.2,22.2,103,119,92.4,100,126
CC[C@]1(O)C[C@H]2CN(CCc3c([nH]c4ccccc34)[C@@](C(=O)OC)(c3cc4c(cc3OC)N(C=O)[C@H]3[C@@](O)(C(=O)OC)[C@H](OC(C)=O)[C@]5(CC)C=CCN6CC[C@]43[C@@H]65)C2)C1,1.7,14.3,15.9,18,38.5,72.4,95,72.1,85.4,91.3
COc1c2ccoc2nc2c(OC)c(OCC(O)C(C)(C)O)ccc12 (stereo not given),-27.9,-11.2,-1.5,9.5,-14.8,69.8,115,75.9,98.5,81.2
C[C@@H]1CC[C@@]2(OC1)O[C@H]1C[C@H]3[C@@H]4CC[C@H]5C[C@@H](O)CC[C@]5(C)[C@H]4CC[C@]3(C)[C@H]1[C@@H]2C,-33,3.3,-12.2,2.6,-1.9,98.3,115,81.9,124,111
CC1(O)CC2C(CC1O)C2(C)C (stereo not given),5.7,-14.1,0,32.4,14.8,118,92.4,99,107,121
COc1ccc(-c2cc(=O)c3c(O)cc(O[C@@H]4O[C@H](CO[C@@H]5O[C@@H](C)[C@H](O)[C@@H](O)[C@H]5O)[C@@H](O)[C@H](O)[C@H]4O)cc3o2)cc1O,10.5,6.9,16.7,13.8,-16.7,76.5,99.4,103,132,110
CCC(CCC(C)C1CCC2C3CCC4CC(O)CCC4(C)C3CCC12C)C(C)C (stereo not given),-8.2,-7.6,-0.7,16.2,21.5,128,102,102,130,139
COc1ccc2c(c1)c(CC(=O)OCC(=O)O)c(C)n2C(=O)c1ccc(Cl)cc1,-8.3,7.6,13.8,-22.2,6.1,84.8,96.2,133,110,107
O=C(O)CN1C(=O)c2cccc3cccc(c23)C1=O,29,-20.6,9.3,7.5,13.4,116,65.2,100,106,110
CC(C)CCC[C@@H](C)[C@H]1CC[C@H]2[C@@H]3C(=O)C=C4C[C@@H](O)CC[C@]4(C)[C@H]3CC[C@]12C,-14.8,0.4,10.3,12.2,-5.2,120,119,125,107,93.4
OC(CCN1CCCC1)(c1ccccc1)C1CCCCC1 (stereo not given),2.7,-5.8,-22.3,0.9,24.6,92.5,99.2,117,74.8,85.3
COc1ccc2oc(-c3ccccc3OC)cc(=O)c2c1,-4.9,-6.9,-2.2,20.9,-2.2,126,116,132,115,100
CCNC(=O)CC[C@H](N)C(=O)O,-18,-10.5,-7.3,2,3,105,122,127,81.3,122

# Reference: the supplement of paper PMC10689618
